Results as given in PubChem BioAssay AID2685 (National Center for Advancing Translational Sciences (NCATS), 2010).
In all, about 320,000 compounds went through this assay and about 2,100 (0.66%) were called active. Inconclusive results, whose numbers are uncertain, are shown with a selection of clear calls. The call rests on the fitted dose curve; in most records, active means well fitted inhibition curve with a large enough effect in the signal ratio, with a control signal flat (not every such curve was filed as active); inconclusive means small, poorly fitted or top-dose-only effect, or effect the other way, or a change in a side signal; inactive means flat fitted curve, though single readings scatter; the % refers to the signal ratio. Potencies of inconclusive entries are doubtful fits and often do not repeat.

Assay: qHTS Assay for Lipid Storage Modulators in Drosophila S3 Cells
Details: BODIPY lipid droplet fluorescence, 18-24 h, cells fed with added oleic acid; lipid storage change, negative = inhibition: at 46.1 µM (top of the series) unless noted
Method in brief: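 Laser-scanning cytometry quantifies lipid droplet accumulation (500–530 nm total intensity; droplet/cell object ratio) in oleic acid-fed (400 uM added) Drosophila S3 cells treated with a concentration series. 20 uM Triacsin C defined 100% inhibition.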
On the % scale 0 is the no-effect control and ±100 the full control effect; potency means the concentration at half of the fitted maximal effect.

Row | SMILES | lipid storage change, negative = inhibition | Potency | outcome
1 | Cn1c(=O)c2cc(S(=O)(=O)NCCC(=O)NCCC3=CCCCC3)ccc2n(C)c1=O | inconclusive: -56% |  | 
2 | COc1cccc(NC(=O)CSc2nc3ccccc3c(=O)n2CCCC(=O)N2CCCC2)c1 |  | inconclusive: 1.64 µM [activator, full curve] | 
3 | CCc1c(C)n([O-])c2c([n+]1=O)CCC2 | inconclusive: -24.9% |  | 
4 | O=C(Nc1ccc(-c2csc(Nc3cccc(C(F)(F)F)c3)n2)cc1)c1ccccc1 |  | inconclusive: 29.1 µM [cytotoxic, single point] | 
5 | Cc1nn(CC(=O)NCc2ccc(Cl)cc2)c(C)c1[N+](=O)[O-] | inconclusive: -0.387% |  | 
6 | Cc1cc(C(=O)N/N=C/c2ccc(C)s2)n[nH]1 | inconclusive: -23% |  | 
7 | CCC1CCCCN1Cc1ccc(CNC(=O)CCc2nnc3ccc(N4CCCCC4)nn23)o1 (centres undefined) |  | inconclusive: 29.1 µM [falling, single point] | 
8 | COCCCNC(=O)CN1C(=O)CSc2ncccc21 | inconclusive: -5.41% |  | 
9 | COc1ccc(-n2c(SCc3ccc([N+](=O)[O-])cc3)nnc2-c2ccccc2)cc1 | inconclusive: 32.2% |  | 
10 | CCSCc1nnc(SCC(=O)Nc2cc(F)ccc2C)n1C | inconclusive: 21.5% |  | 
11 | CCOc1cc(NC(=S)NCCCOC)c(OCC)cc1NC(=O)c1ccco1 | inconclusive: 17.7% |  | 
12 | CCOC(=O)Cc1csc(SCC(=O)Nc2ccc3[nH]c(=O)[nH]c3c2)n1 | inconclusive: -21.9% |  | 
13 | COc1cc(C2CC(=O)c3c([nH]c(C(=O)OCCOC(C)C)c3C)C2)cc(OC)c1OC (centres undefined) |  | inconclusive: 29.1 µM [falling, single point] | 
14 | N#Cc1ccccc1NC(=O)COC(=O)c1ccc2c(c1)OCO2 | inconclusive: -30.1% |  | 
15 | COc1cc(OC)cc(C(=O)N[C@H](C(=O)OCC(=O)NC(=O)c2cccn2C)C(C)C)c1 | inconclusive: -1.44% |  | 
16 | O=C(CC(=O)NCc1ccccc1)NCc1ccccc1 | inconclusive: 37.3% |  | 
17 | CN(CC(=O)Nc1ccc(Cl)c(Cl)c1)C(=O)C12CC3CC(CC(C3)C1)C2 |  | inconclusive: 14.6 µM [falling, partial curve, poor fit] | 
18 | COc1ccc(CC(=O)Nc2ccc3c(c2)CCC3)cc1OC |  | inconclusive: 8.2 µM [activator, partial curve] | 
19 | Cc1cccc(C(CC(=O)NCc2ccco2)c2ccccc2)c1O (centres undefined) | inconclusive: -1.63% |  | 
20 | CC(=O)/C(C#N)=C1\NC(=O)C(Cc2ccc(F)cc2)S1 (centres undefined) | inconclusive: 22.4% |  | 
21 | C=CCn1c(=O)c(C(=O)Nc2ncccc2O)c(O)c2ccccc21 | inconclusive: 141% |  | 
22 | Nn1c(SCC(=O)Nc2ccccc2Br)nnc1-c1ccco1 | inconclusive: 0.892% |  | 
23 | O=C(NC(=S)Nc1ccccc1[N+](=O)[O-])c1ccccc1 |  | inconclusive: 1.46 µM [activator, partial curve] | 
24 | O=S(=O)(c1cccc2nonc12)N1CCN(c2ccc(F)cc2)CC1 | inconclusive: -0.968% |  | 
25 | Cc1ccc(-n2c(O)c(C=Nc3ccccc3-c3n[nH]c(=S)[nH]c3=O)c3ccccc3c2=O)c(C)c1 | inconclusive: 20.9% [at 9.22 µM] |  | 

Molecules above that have a Cl atom (2):
Row | SMILES | lipid storage change, negative = inhibition | Potency | outcome
5 | Cc1nn(CC(=O)NCc2ccc(Cl)cc2)c(C)c1[N+](=O)[O-] | inconclusive: -0.387% |  | 
17 | CN(CC(=O)Nc1ccc(Cl)c(Cl)c1)C(=O)C12CC3CC(CC(C3)C1)C2 |  | inconclusive: 14.6 µM [falling, partial curve, poor fit] | 

Later entries.

Row | SMILES | lipid storage change, negative = inhibition | Potency | outcome
26 | COc1ccc(Br)cc1/C=N/N1CCN(Cc2ccccc2Cl)CC1 | inconclusive: 44.4% |  | 
27 | Cc1nn(C)c(C(=O)Nc2ccc(Br)cc2F)c1Br | inconclusive: 3.05% |  | 
28 | O=C(O)C1=NN(c2ccccc2)C(=O)CC1 |  | inconclusive: 4.11 µM [activator, full curve] | 
29 | N#C/C(=C\c1cccc([N+](=O)[O-])c1)c1nnc2n1CCCCC2 |  | active: 4.11 µM | 
30 | Fc1cnc(Cl)nc1N1CCN(c2ccccc2)CC1 |  | inconclusive: 0.0046 µM [activator, full curve, poor fit] | 
31 | C=CCNC(=O)NC(=O)COC(=O)c1ccccc1Sc1ccc(C(F)(F)F)cc1[N+](=O)[O-] | inconclusive: 11.9% |  | 
32 | Cc1cc2c(s1)c1c(n2C)C(=O)N(Cc2ccccc2F)C1 | inconclusive: 32% |  | 
33 | O=C(N/N=C/c1ccc[nH]1)c1cc2ccccc2cc1O |  | inconclusive: 29.1 µM [rising, single point] | 
34 | CC1(C)Cc2cccc(OCC(=O)N3CCN(S(=O)(=O)c4ccccc4F)CC3)c2O1 | inconclusive: 10.5% |  | 
35 | CCc1ccc(N2CC(C(=O)Nc3cccc(C(=O)NC4CC4)c3)CC2=O)cc1 (centres undefined) | inconclusive: 0.397% |  | 
36 | COc1ccc(Nc2ncnc3c2oc2ccccc23)cc1 |  | inconclusive: 29.1 µM [activator, single point] | 
37 | COc1ccc(NC(=O)C(=O)NNC(=O)COc2ccc(OC)cc2)cc1 |  | inconclusive: 29.1 µM [activator, single point] | 
38 | CC(C)c1ccc(C(C(=O)NC2CCCC2)N(C(=O)c2csnn2)C2CC2)cc1 (centres undefined) | inconclusive: -74.1% |  | 
39 | COc1cc(/C=N/NC2=NS(=O)(=O)c3ccccc32)ccc1OC(C)=O | inconclusive: 22% |  | 
40 | Cc1ccc(S(=O)(=O)/N=C2\C(=O)c3ccccc3C([O-])=C2n2cc[n+](CCC(C)C)c2)cc1 |  | inconclusive: 29.1 µM [activator, single point] | 
41 | CC(=O)c1ccc(NS(=O)(=O)c2ccc(N/C=C/C(=O)c3ccc(F)cc3)cc2)cc1 |  | inconclusive: 2.91 µM [activator, partial curve] | 
42 | CCOCc1nnc(NC(=O)c2c(-c3ccccc3)noc2C)s1 |  | inconclusive: 0.517 µM [falling, full curve, poor fit] | 
43 | CCCS(=O)(=O)c1ncc(Cl)c(C(=O)Nc2ccc(S(=O)(=O)Nc3ncccn3)cc2)n1 |  | inconclusive: 29.1 µM [falling, single point] | 
44 | COc1ccc(C2Nc3ccccc3C(=O)N2c2ccccc2)cc1Cn1cc([N+](=O)[O-])cn1 (centres undefined) | inconclusive: 27.2% |  | 
45 | COc1cc(C2NC(=S)NC(c3ccccc3)=C2C(C)=O)cc(Br)c1OCC(N)=O (centres undefined) | inconclusive: 8.86% [at 9.22 µM] |  | 
46 | COc1cc(OC)cc(C(=O)NC(=S)Nc2ccc(N3CCCC3)cc2)c1 | inconclusive: 43.5% |  | 
47 | O=C1Nc2ccccc2C1=Nc1ccc(-c2nnc3n2CCCCC3)cc1 |  | inconclusive: 16.4 µM [activator, partial curve, poor fit] | 
48 | O=c1c(Cc2c(F)cccc2Cl)c(O)ccn1C1CCCCCC1 | inconclusive: -32.6% [at 0.00295 µM] |  | 
49 | CSCCNC(=O)c1cccc(Cl)c1 | inconclusive: 0.21% |  | 
50 | O=C(c1ccccc1)N1CCN(c2ccc([N+](=O)[O-])c(NCC3CCCO3)c2)CC1 (centres undefined) |  | inconclusive: 29.1 µM [falling, single point] | 

Row | SMILES | lipid storage change, negative = inhibition | Potency | outcome
51 | CCNC(=S)N1CCNC(=O)C1CC(=O)OC (centres undefined) |  | inconclusive: 29.1 µM [rising, single point] | 
52 | CCOCCCNC(=O)C1CCN(S(=O)(=O)N2CCCCC2)CC1 |  | inconclusive: 0.326 µM [falling, partial curve, poor fit] | 
53 | CCOc1ccc(/C=N/NC(=O)c2ccc(CSc3nc4ccccc4[nH]3)cc2)cc1 |  | inconclusive: 7.31 µM [activator, single point] | 
54 | Cc1cc(C)c(NC(=O)CNC(=O)c2ccccc2SCC(=O)N2CCCC2)c(C)c1 | inconclusive: 2.69% |  | 
55 | O=C(Nc1ccccc1C(F)(F)F)c1cc2ccccc2o1 | inconclusive: 41.4% |  | 
56 | CSc1ccc(S(=O)(=O)Nc2c(C)cccc2C)cc1 |  |  | inactive [at 46.1 µM]
57 | COc1ccc(CCNC(=O)COC(=O)COc2ccc(C#N)cc2)cc1 |  | inconclusive: 14.6 µM [falling, single point] | 
58 | O=[N+]([O-])c1ccccc1S(=O)(=O)N1CCN(CC2CC3C=CC2C3)CC1 (centres undefined) |  | inconclusive: 25.9 µM [falling, single point] | 
59 | Cc1ccc(OS(=O)Nc2cccc3nccnc23)cc1 (centres undefined) | inconclusive: 27.2% |  | 
60 | O=C(NC(=S)NC1CCCCC1)c1ccc(Cl)cc1 |  | inconclusive: 29.1 µM [falling, single point] | 
61 | CC(=O)c1c(C)[nH]c(C(=O)CN2CCN(S(=O)(=O)c3ccccc3)CC2)c1C | inconclusive: 7.27% |  | 
62 | CC(C)N(Cc1ccccc1)C(=S)Nc1ccc(OC(F)F)cc1 | inconclusive: 17% |  | 
63 | COc1ccccc1NC(=O)c1ccc(SCC(=O)NCc2ccccc2Cl)c([N+](=O)[O-])c1 | inconclusive: 12.8% |  | 
64 | NS(=O)(=O)c1ccc(CNC(=O)c2cccnc2Cl)cc1 |  | inconclusive: 0.116 µM [falling, single point] | 
65 | CC(=O)Nc1sc(C)c(C)c1C(=O)OC(C)C | inconclusive: 16.1% |  | 
66 | COc1ccc(C2=NO[C@@H]3C(=O)N(c4c(C)cccc4C)C(=O)[C@H]23)cc1OC |  | inconclusive: 29.1 µM [falling, single point] | 
67 | CCOC(=O)c1ccccc1NC(=O)COC(=O)CCNS(=O)(=O)c1ccc(C)c(C)c1 | inconclusive: 22.2% |  | 
68 | CCC(C)[C@H](NC(=O)NCc1cccs1)C(=O)OC (some centres undefined) | inconclusive: 1.72% |  | 
69 | O=C(CCNC(=O)c1ccc(Cl)cc1)NCCCN1CCOCC1 | inconclusive: 31.9% |  | 
70 | COCCNC(=O)CN(c1ccc(C)cc1)S(=O)(=O)c1ccccc1 |  | inconclusive: 14.6 µM [falling, partial curve] | 
71 | COc1ccc(C(CNC(=O)c2cc3c(s2)CCC(C)C3)N2CCCC2)cc1 (centres undefined) | inconclusive: 18.7% |  | 
72 | CSc1ccc(Cl)c(C(=O)NCCOc2cc(C(C)C)ccc2C)c1 | inconclusive: -47.2% |  | 
73 | NNC(=O)CN1C(c2ccccc2)=Nc2ccc(Br)cc2C1c1ccccc1 (centres undefined) | inconclusive: 11.7% |  | 
74 | Nc1c(Cl)ncnc1NCCO |  | inconclusive: 4.61 µM [falling, full curve, poor fit] | 

Exported with tabs: entries from further up
Row	SMILES	lipid storage change, negative = inhibition	Potency	outcome
8	COCCCNC(=O)CN1C(=O)CSc2ncccc21	inconclusive: -5.41%		
9	COc1ccc(-n2c(SCc3ccc([N+](=O)[O-])cc3)nnc2-c2ccccc2)cc1	inconclusive: 32.2%		
